PubChem BioAssay AID1259415 (National Center for Advancing Translational Sciences (NCATS), 2018)
The campaign covered roughly 410,000 compounds. About 18,000 (4.4%) were called active. Inconclusive means that the source gave no clear call. Such entries were picked first, then a sample of the others. No stated cut-off is given here; in the data, active means activity change below about -60%; inconclusive means no clear call, values can overlap the other calls; inactive means above about -39%.

Test: qHTS Assay for inhibitors of the human cytomegalovirus (HCMV)
Conditions: HFF cells, HCMV-luciferase reporter, 72 h; at 57.5 µM; active compounds read low
Method in brief: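 Two-dose cell screen: HFF monolayers treated with compounds and infected with luciferase-expressing HCMV at 1 PFU/cell, 72 h at 37C, then lysed for luciferase measurement.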
On the % scale 0 is the no-effect control and ±100 the full control effect.

| Structure (SMILES) | activity change, negative = inhibition |
| --- | --- |
| O=C(Nc1ccc(Cl)cc1)c1cc2nc(-c3ccco3)cc(C(F)(F)F)n2n1 | inactive: -21.4% |
| N#CC1=C(N)Oc2n[nH]c(-c3cccs3)c2C1c1ccccc1C(=O)O (stereo not drawn) | inconclusive: -46.1% |
| Cc1ccc(-c2nc3c(c(SCC(=O)N4CCOCC4)n2)Cc2c(CO)cnc(C)c2O3)cc1 | inactive: -28.2% |
| CCC(C)(C)NC(=O)C(c1ccccc1Cl)N(C(=O)CCC(=O)Nc1cc(C)on1)C(C)(C)C (stereo not drawn) | inconclusive: -53.6% |
| CCOC(=O)C1(C)CCCN1C(=O)c1sccc1C (stereo not drawn) | inactive: 10.2% |
| Nc1ncnc2c1ncn2[C@@H]1O[C@H](CNCc2ccc(OCC(=O)Nc3ccccn3)cc2)[C@@H](O)[C@H]1O | inconclusive: -59% |
| CCc1nnc(NC(=O)c2nc(SCc3ccccc3C)ncc2Cl)s1 | inactive: 12.7% |
| CCOC(=O)c1sc2ncn(/N=C/c3ccc(O)cc3)c(=O)c2c1C | inconclusive: -40.1% |
| CC(C)c1ccc2c(c1)C(N1CCNCC1)Cc1ccc(F)cc1S2 (stereo not drawn) | active: -98.5% |
| S=C1NC[C@H](Cc2ccccc2)N1CC1CCN(CCCC2CCCCC2)CC1 | active: -105% |
| COCCNC(=O)C1CCCN(C(=O)c2cccnc2Oc2ccccc2)CC1 (stereo not drawn) | inactive: -14.8% |
| C1=C(c2ccccc2)Nc2ncnn2C1c1ccccc1 (stereo not drawn) | inconclusive: -43.8% |
| COc1ccc(-n2nnnc2C(c2ccnc3ccccc23)N2CCN(C/C=C/c3ccccc3)CC2)cc1 (stereo not drawn) | inactive: -23.7% |
| O=C1c2c(O)cc(O)cc2O[C@H](c2ccc(O)cc2)[C@H]1O | inactive: -6.78% |
| COc1ccc(NC(=O)C2CCCN(S(=O)(=O)c3ccc4c(c3)CCCN4C(C)=O)C2)cc1Cl (stereo not drawn) | inconclusive: -44.1% |
| CCCNC(=O)C1(C)CCCN(Cc2cccs2)C1 (stereo not drawn) | inconclusive: -40.5% |
| CCOC(=O)N1CCN(C(=O)/C(=C/c2ccc(OC)c(OC)c2)NC(=O)c2ccccc2)CC1 | inconclusive: -41.5% |
| O=C(Nc1ccc(OC(F)F)cc1)c1ncc(Cl)c(Cl)c1Cl | inconclusive: -43.6% |
| Cc1ccc2c(c1)S/C(=C/c1ccc[n+](CCO)c1)N2C | active: -95.1% |
| COc1ccc(CNC(=O)c2[nH]c(C)c(C(C)=O)c2C)cc1 | inactive: -15.1% |
| O=C(Nc1nonc1NC(=O)C1CCCCC1)C1CCCCC1 | inconclusive: -52.5% |

Single entries from the results shown.
For activity change, negative = inhibition, O=C(Nc1ccc(Cl)cc1)c1cc2nc(-c3ccco3)cc(C(F)(F)F)n2n1 has the entry inactive: -21.4%
For activity change, negative = inhibition, COCCNC(=O)C1CCCN(C(=O)c2cccnc2Oc2ccccc2)CC1 (stereo not drawn) has the entry inactive: -14.8%
For activity change, negative = inhibition, Nc1ncnc2c1ncn2[C@@H]1O[C@H](CNCc2ccc(OCC(=O)Nc3ccccn3)cc2)[C@@H](O)[C@H]1O has the entry inconclusive: -59%
For activity change, negative = inhibition, Cc1ccc2c(c1)S/C(=C/c1ccc[n+](CCO)c1)N2C has the entry active: -95.1%
For activity change, negative = inhibition, O=C(Nc1ccc(OC(F)F)cc1)c1ncc(Cl)c(Cl)c1Cl has the entry inconclusive: -43.6%

The list continues:

| Structure (SMILES) | activity change, negative = inhibition |
| --- | --- |
| Cc1cccc(NS(=O)(=O)c2ccc(-n3cccn3)cc2)c1C | inconclusive: -52.1% |
| Cc1ccc(C#N)c(SCc2ccccc2F)n1 | inconclusive: -54.6% |
| CCn1cc(C(=O)NCc2ccc(C)cc2)c(=O)c2cc(S(=O)(=O)N3CCCCCC3)ccc21 | inactive: -14.3% |
| COc1ccccc1CNC(=O)c1ccc2nc(-c3ccccc3)c(-c3ccccc3)nc2c1 | inactive: 6.71% |
| COc1cc(NC(=O)c2ccc([N+](=O)[O-])o2)ccc1NC(=O)c1ccco1 | inconclusive: 0% |
| COC(=O)C1=C(C)N(Cc2ccccc2)C(=NCc2ccc(OC)cc2)N[C@H]1c1cccc(F)c1 | inconclusive: -44.7% |
| CC1=C/C(=N\N=C2\NC(=O)C(CC(=O)Nc3ccccc3F)S2)CC(C)(C)C1 (stereo not drawn) | active: -65.3% |
| CCCOC(=O)C1=C(C)NC2=C(C(=O)CCC2)C1c1cccc(OC)c1OC (stereo not drawn) | inactive: -30.6% |
| Cc1cccc(OCC(=O)Nc2ccc(Cl)c(-c3nc4ccccc4[nH]3)c2)c1 | inconclusive: -44.8% |
| CCN1C(=O)[C@H]2[C@@H](c3ccc(C)cc3)N3C(=O)N(c4ccc(C(F)(F)F)cc4)C(=O)[C@@]3(Cc3ccccc3)[C@H]2C1=O | inconclusive: -42.3% |
| CC12CCC(C(=O)N(c3ccccc3Cl)C1=O)C2(C)C (stereo not drawn) | inactive: -38.3% |
| CC1(O)CCN2C(=O)CCc3cccc1c32 (stereo not drawn) | active: -61.2% |
| COc1ccc(/C=C2\SC(=O)N(CCCC(=O)Nc3ccc(C(=O)O)cc3)C2=O)cc1OC | inconclusive: -42.8% |
| COc1ccccc1OCC(=O)NN=C(Cc1ccccc1)Cc1ccccc1 | active: -62.9% |
| CCOc1ccc(-c2cncc3nccn23)cc1 | inconclusive: -45.7% |
| Clc1ccc(-c2nc3ccc(Cl)cn3c2Cc2cccc(Cl)c2)cc1 | inactive: 15.8% |
| N#Cc1cccc(NC(=O)c2cc(C3CCCCN3C(=O)CCc3ccccc3)on2)c1 (stereo not drawn) | inconclusive: -44.2% |
| Cc1ccccc1Nc1nnc(SCc2cc([N+](=O)[O-])cc3c2OCOC3)s1 | inconclusive: -42.8% |
| Cc1ccc(Cl)cc1N1CCN(CCCNC(=O)c2nnc(Cc3cccc(Cl)c3)o2)CC1 | active: -102% |
| CN(CCC#N)S(=O)(=O)c1ccc2[nH]cc(C(=O)NCCc3ccccc3)c(=O)c2c1 | inconclusive: -52.6% |
| O=S(=O)(CC(CN1CCCCC1)N1CCCCC1)c1ccccc1 (stereo not drawn) | active: -98.6% |

| Structure (SMILES) | activity change, negative = inhibition |
| --- | --- |
| O=C(c1cc2ccccc2o1)N(C1CC1)C1(C(=O)Nc2ccccc2)CCCC1 | inactive: -16.3% |
| CC1CCCN(S(=O)(=O)c2ccc(N(C(=O)c3cnccn3)C(C(=O)NC3CCCCC3)c3cccs3)cc2)C1 (stereo not drawn) | inconclusive: -47.4% |
| COc1ccc(NC(=O)N2CCCC(c3nc(-c4ccc(OC)cc4)no3)C2)cc1 (stereo not drawn) | inconclusive: -44.9% |
| Cc1ccc(C)c(C(=O)COC(=O)CN2C(=O)C3C4CCC(C4)C3C2=O)c1 (stereo not drawn) | inconclusive: -42.1% |
| COc1cccc(C(=O)NCCSc2ccc(C)cc2)c1 | inconclusive: -59.4% |
| O=C(Oc1ccc2c(-c3ccccc3)cc(=O)oc2c1)c1cccs1 | active: -66.6% |
| Cc1cc(N2CCN(c3ccc(F)cc3)CC2)nc(-c2ccccc2)n1 | inconclusive: -41.7% |
| CC(O)c1nc2ccccc2n1CC(=O)Nc1ccc2c(c1)OCCO2 (stereo not drawn) | inconclusive: -40% |
| O=C(OC(C(=O)Nc1ccc(Cl)cc1C(F)(F)F)c1ccccc1)c1c(Cl)cccc1Cl (stereo not drawn) | inconclusive: -48.1% |
| Cc1cccc(Nc2cnn(C34CC5CC(CC(CC(=O)O)(C5)C3)C4)c(=O)c2Cl)c1 | inconclusive: -49.4% |
| CC(=O)N1CN(C2CC(C)(C)NC(C)(C)C2)Cc2c1sc1c2CCCC1 | active: -62.7% |
| COc1cc(/C=C2\SC(=S)N(NC(=O)c3ccc(O)c(OC)c3)C2=O)ccc1O | inconclusive: -54% |
| Cc1ccc(NC(=O)c2cc(S(=O)(=O)N3CCOCC3)c(Br)s2)cc1 | inactive: -38.9% |
| COc1ccc(-c2cc(N)n(S(=O)(=O)c3c(F)c(F)c(F)c(F)c3F)n2)cc1OC | active: -102% |
| CC(=O)Nc1ccc2c(c1)[nH]c(=O)c1ccccc12 | inactive: 25.9% |
| C[C@H](CO)N1C[C@H](C)[C@@H](CN(C)C(=O)C2CC2)OCc2cn(nn2)CCCC1=O | inactive: -23.4% |
| CC1CCCCC1NC(=O)CN1CCC(NC(=O)c2cccc(F)c2)CC1 (stereo not drawn) | inconclusive: -57.6% |
| O=c1[nH]sc2ccccc12 | active: -73.5% |
| CC1CCCN(CC(=O)Nc2ccc(S(=O)(=O)N3CCCCC3)cc2)C1 (stereo not drawn) | inconclusive: -53.7% |
| COc1cc(NC(=O)C2CCCO2)c(OC)cc1Cl (stereo not drawn) | inactive: 3.72% |
| Cc1ccc2nc(-c3cccc(Br)c3)cc(C(=O)NC3=NCCS3)c2c1 | inconclusive: -44.2% |

| Structure (SMILES) | activity change, negative = inhibition |
| --- | --- |
| COc1ccccc1Cc1c(C(C)(C)C)nc2c3ccccc3ccn12 | inconclusive: -42.6% |
| Cc1ccc(C)c(NC(=O)NNC(=O)c2ccc3ccccc3c2O)c1 | inconclusive: -40.3% |
| COc1ccc(Cl)cc1NC(=O)CCn1cnc2ccccc2c1=O | inconclusive: -42.8% |
| CCc1cccc2c(C(=O)CN3C(=O)NC4(CCCCC4)C3=O)c[nH]c12 | inconclusive: -45.6% |
| CN(C)S(=O)(=O)c1cccc(NC(=S)N2CCc3ccccc32)c1 | inactive: -31.6% |
| CC1=C(C(=O)OC(C)C)C(c2ccc(C)o2)C(C(=O)OC(C)C)=C(C)N1 | inactive: 7.43% |
| CCOc1ccc(C(C(=O)NCC2CCCO2)N(CCc2cccc(C)c2)C(=O)c2snc(C(N)=O)c2N)cc1 (stereo not drawn) | inconclusive: -46.7% |
| COc1ccc(C2C(C(C)=O)=C(O)C(=O)N2c2nccs2)cc1 (stereo not drawn) | inconclusive: -43.1% |
| O=C(NCc1ccccc1Cl)c1ccc2c(c1)SC1=NS(=O)(=O)CCN12 | inconclusive: -54.3% |
| CCOC(=O)[C@H]1[C@H]2COc3cc(OC)ccc3[C@@H]2N2C(=O)N(c3cccc(F)c3)C(=O)[C@@]12C | inconclusive: -55.8% |
| CC(=O)O[C@H]1CSC[C@H]1NC(=O)c1ccccc1 | inconclusive: -42.1% |
| O=C1NC[C@H](Cc2ccccc2)N(C[C@H]2CCCN2C[C@H](Cc2ccccc2)N2C[C@H](Cc3ccc(O)cc3)N(CCc3ccccc3)C(=O)C2=O)C1=O | active: -72.6% |
| CCNC(=S)N1CCc2ccccc2C1 | inconclusive: -40.7% |
| Cc1ccc2c(c1)N(CC(=O)NCCCc1ccccc1)C(=O)c1cccnc1O2 | active: -61.7% |
| Cc1ccc(Cl)cc1N1CCN(C(=O)c2cc(S(=O)(=O)N3CCCCCC3)cn2C)CC1 | inactive: -8.61% |
| COC(=O)[C@@H]1C[C@]2(OC(=O)c3ccccc3)C=CC(=O)C[C@@H]2N1C(=O)OCc1ccccc1 | active: -97.7% |
| O=C(c1ccccc1)N1CCOC12CCN(c1ncc(C(F)(F)F)cc1Cl)CC2 | active: -61.1% |
| Cc1cccn2c(CNC3CCCc4ccccc43)c(C(=O)N3CCOCC3)nc12 (stereo not drawn) | inactive: -27.5% |
| COc1cccc(Nc2sc(C(=O)c3ccc(F)cc3)c(N)c2C(=O)NCc2ccc(C)cc2)c1 | active: -62.3% |
| COc1ccc2c(c1OC)C(=O)N1c3ccccc3N=C(c3ccc([N+](=O)[O-])cc3)CC21 (stereo not drawn) | inconclusive: -54.2% |
